Experimental findings from the supplement of paper PMC12889115 are described below.

For the assay, the system named is Salmonella enterica serovar Typhimurium SL1344. The assay is described as follows: bacterial growth OD600 after 18 h with compound and polymyxin B; higher = more bacterial growth (less inhibition). The conditions noted are these: 50 µM, Mueller-Hinton broth.

Structures are written as SMILES. The list shows a part of the results. These are raw signals, not scaled to a control.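 Primary screen: polymyxin B was added at a level permeabilizing Salmonella outer membranes while sparing inner membranes. DMSO wells, both with and without polymyxin B, established maximum growth. Plate-to-plate variation meant each plate was ranked on its own, and the lowest-OD600 compounds were selected as hits.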

Take `Cc1cc(C)n(Cc2cc(C(=O)NCCc3cnn(C)c3)n[nH]2)n1`: the “bacterial growth OD600” value (polymyxin B 1 µg/mL) was 1.14.
Still for that read-out and setting: in the case of `Cc1nnc(CN(C)Cc2cn(Cc3ccccc3)nc2-c2ccc3c(c2)OCO3)o1` it was 0.984.
As to `COCC1CCN(C(=O)CCc2nnc(C3(c4ccc(Cl)cc4)CCC3)o2)CC1`, under “polymyxin B 0.75 µg/mL”, the “bacterial growth OD600” value is 0.756.
On the same count and under the same terms, in the case of `COc1cccc(-c2noc(-c3ccc(NCc4ccc(C)o4)nc3)n2)c1OC` it was 0.523; in that of `c1ccc(CCN2CCC(C3CCN(Cc4ccccn4)CC3)C2)cc1` (stereo not given), 0.878.
Regarding `C=C(C)CN(C)C(=O)Cc1c2c(n(Cc3ccccc3F)c1C)CCCC2=O`, where the note is “polymyxin B 1 µg/mL”, the “bacterial growth OD600” value stood at 0.656.
As to `COc1ccc(CNC(=O)CCN2Cc3ccccc3OC(c3ccccc3F)C2)cc1OC` (stereo not given), the “bacterial growth OD600” value (polymyxin B 0.75 µg/mL) was 0.662.
For the compound `C=CCOc1cccc(C(=O)N2CCCC(Nc3ccc(F)cc3)C2)c1` (stereo not given), the “bacterial growth OD600” value (polymyxin B 1 µg/mL) is 0.726.
Consider `COCCn1cc(C(=O)NC2CCCCCCC2)c(=O)c(C(=O)N2CCCC(C)C2)c1` (stereo not given), for which the “bacterial growth OD600” value (polymyxin B 0.75 µg/mL) is 0.976.
Still for that read-out and setting: in the case of `Cc1ccccc1CN1CCC(N2CCCC(C(=O)NC3CC3)C2)CC1` (stereo not given) it was 0.849.
For `CCC(=O)NC(C)c1cnc(N(C)C2CCCCC2)nc1C` (stereo not given), the “bacterial growth OD600” value (polymyxin B 1 µg/mL) was determined as 0.888.
Still for that read-out and setting: next, `Cc1cccc(CN2CCCC3(CCN(S(=O)(=O)N(C)C)C3)C2=O)c1` (stereo not given): 0.845.
`Cc1cc(N2CCN(C(=O)c3ccc4oc(C(C)C)nc4c3)CC2)cc(C)n1`: the “bacterial growth OD600” value (polymyxin B 0.75 µg/mL) came out at 0.821.
On the same count and under the same terms, in the case of `Cc1c[nH]c(C(=O)N2C[C@H]3OC(=O)N(CCCc4ccc(F)cc4)[C@H]3C2)n1` it was 0.885.
For the compound `COC(=O)CCC(=O)N1CCC(C(=O)Nc2ccc(-c3cccc(C)c3)cc2)CC1`, the “bacterial growth OD600” value (polymyxin B 1 µg/mL) was 0.351.
On the same count and under the same terms, next, `COC(=O)CCCC(=O)N1CCCC(CNS(=O)(=O)c2ccc(OC)cc2)C1` (stereo not given): 0.861; `Cc1cc(C)nc(CCNC(=O)C2CCC(=O)N(CCc3ccccn3)C2)n1` (stereo not given): 1.14.
`NC(=O)CCNC(=O)CC(c1ccccc1)c1ccc2c(c1)OCO2` (stereo not given): under “polymyxin B 0.75 µg/mL”, the “bacterial growth OD600” value stood at 0.801.
`O=C(Nc1cccc(-c2cc3ccccc3[nH]2)c1)C1CCN(C(=O)C2CCCO2)CC1` (stereo not given): the “bacterial growth OD600” value (polymyxin B 1 µg/mL) stood at 0.846.
Consider `O=C1CCC(C(=O)N2CCCC(CCc3cccc(F)c3)C2)=NN1` (stereo not given), for which the “bacterial growth OD600” value (polymyxin B 0.75 µg/mL) is 0.812.
